Assay: Physical dependence test: weight loss before and 1 h after naloxone-precipitated withdrawal
Type: in vivo, Sprague-Dawley rats
Settings: morphine hydrochloride s.c. twice a day, 5 mg/kg to 60 mg/kg, 7 days; naloxone 5 mg/kg on day 8; before and 1 h after withdrawal
Description: 30 Sprague-Dawley rats (female:male 1:1) were randomly divided into 3 groups, including a morphine control group, an Agriolima agrestis extract group, and a negative control group, each group having 10 animals. Both the morphine control group and the Agriolima agrestis extract group were administered with increasing dose. The morphine control group was injected subcutaneously with morphine hydrochloride twice a day. According to the principle of increasing dose, the dosage of morphine was increased upon each administration from 5 mg/kg to 60 mg/kg, and continuously administered until the 7th day. The Agriolima agrestis extract group was administered twice a day by oral gavage with increasing dose. The dosage was increased daily from […] to 3.0 g/kg and continuously administered until the 7th day. The negative control group was given the same volume of vegetable oil daily, and the administration time and frequency were the same as those in the Agriolima agrestis extract group. […]

Work on `CN1CC[C@]23c4c5ccc(O)c4O[C@H]2[C@@H](O)C=C[C@H]3[C@H]1C5.Cl` [Morphine, morphine hydrochloride] yielded a Weight loss of 9.5 ± 3.62 g.

— patent US11116802B2, “Extract effective in treating drug addiction and preparation method therefor” (GUANGXI JIUFU BIOTECHNOLOGY CO., LTD, priority 2016, dated 2021)
